Results from PubChem BioAssay AID256 (DTP/NCI, 2004).
The list is a part of this screen's results and no random one: it is rich in T/C values a quarter to a half above the control, in often repeated tests (any T/C) and in doses without a T/C. Other doses and runs of a compound stand elsewhere. T/C: endpoint of the treated group in % of that of the vehicle group. Some doses have a count of surviving animals in place of a T/C: the source files T/C as zero there, which appears to mark a toxic dose or a test without result, not a measured value. Some doses without a T/C left all or most animals alive at the check, yet need not have been tolerated: survival well below the control is almost never listed, so the zero probably covers shortened survival too. Counts of survivors are from the toxicity check (mostly the fifth day) where no day follows; animals may have died later. Schedule codes are those of the source, taken here to give the interval after Q, in days (D) or hours (H), and the number of doses after X. Some entries hold several experiments; the values are given in rising order. For survival time, this PubChem deposit counts one and a half times the control or more as active, and values a quarter to a half above the control carry no call in these data; other NCI protocols may use other cut-offs. Additions like (4×) stand for listed records that agree. Some T/C values are followed by the survivors on the day toxicity was checked, most often the fifth; without a count, all were alive then.

Test system: CD2F1 mice, L1210 leukemia ip, survival T/C
Assay: NCI In Vivo Anticancer Drug Screen. Data for tumor model L1210 Leukemia (intraperitoneal) in CD2F1 (CDF1) mice
Details: higher T/C = longer survival
Procedure, shortened: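 Activity against a transplanted murine tumor was judged by comparing the compound group with a vehicle group. The outcome in the treated animals was divided by that in the controls.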

[1] = T/C endpoint: mean survival time, dose: 300.0 mg/kg/injection, schedule: Q01DX001 (ip), vehicle: saline
[2] = T/C endpoint: mean survival time, dose: 300.0 mg/kg/injection, schedule: Q01DX001 (ip), vehicle: other
[3] = T/C endpoint: mean survival time, dose: 100.0 mg/kg/injection, schedule: Q04DX003 (ip), vehicle: saline with Tween-80
[4] = T/C endpoint: mean survival time, dose: 200.0 mg/kg/injection, schedule: Q04DX003 (ip), vehicle: saline with Tween-80
[5] = T/C endpoint: mean survival time, dose: 400.0 mg/kg/injection, schedule: Q04DX003 (ip), vehicle: saline with Tween-80

SMILES: Cc1c(N)nc([C@H](CC(N)=O)NC[C@H](N)C(N)=O)nc1C(=O)N[C@H](C(=O)N[C@H](C)[C@@H](O)[C@H](C)C(=O)N[C@H](C(=O)NCCc1nc(-c2nc(C(=O)NCCC[S+](C)C)cs2)cs1)[C@@H](C)O)C(OC1OC(CO)C(O)C(O)C1OC1OC(CO)C(O)C(OC(N)=O)C1O)c1cnc[nH]1 (stereo not given in full)
- T/C (T/C endpoint: mean survival time, dose: 4.0 mg/kg/injection, schedule: Q01DX009 (ip), vehicle: saline, evaluated on day 5): 98, 102, 111 % of control
- T/C (T/C endpoint: mean survival time, dose: 4.0 mg/kg/injection, schedule: Q01DX009 (ip), vehicle: saline, evaluated on day 30): 101 [5 of 6 alive], 104, 109 % of control
- T/C (T/C endpoint: mean survival time, dose: 8.0 mg/kg/injection, schedule: Q01DX009 (ip), vehicle: saline, evaluated on day 5): 102 and 106 % of control (2×)
- T/C (T/C endpoint: mean survival time, dose: 8.0 mg/kg/injection, schedule: Q01DX009 (ip), vehicle: saline, evaluated on day 30): 103, 110, 115 % of control
- T/C (T/C endpoint: mean survival time, dose: 16.0 mg/kg/injection, schedule: Q01DX009 (ip), vehicle: saline, evaluated on day 5): 102 and 104 % of control
- T/C (T/C endpoint: mean survival time, dose: 16.0 mg/kg/injection, schedule: Q01DX009 (ip), vehicle: saline, evaluated on day 30): 98 (2×) and 110 % of control
- survivor count (T/C endpoint: mean survival time, dose: 32.0 mg/kg/injection, schedule: Q01DX009 (ip), vehicle: saline): 10 of 10
- survivor count (T/C endpoint: mean survival time, dose: 64.0 mg/kg/injection, schedule: Q01DX009 (ip), vehicle: saline): 9 of 10
- T/C (T/C endpoint: median survival time, dose: 2.0 mg/kg/injection, schedule: Q01DX009 (ip), vehicle: saline, evaluated on day 30): 100, 104, 107 % of control
- T/C (T/C endpoint: median survival time, dose: 2.0 mg/kg/injection, schedule: Q01DX009 (ip), vehicle: saline, evaluated on day 60): 107 % of control
- T/C (T/C endpoint: median survival time, dose: 4.0 mg/kg/injection, schedule: Q01DX009 (ip), vehicle: saline, evaluated on day 5): 100 % of control
- T/C (T/C endpoint: median survival time, dose: 4.0 mg/kg/injection, schedule: Q01DX009 (ip), vehicle: saline, evaluated on day 30): 100, 107, 118 % of control
- T/C (T/C endpoint: median survival time, dose: 4.0 mg/kg/injection, schedule: Q01DX009 (ip), vehicle: saline, evaluated on day 60): 105 % of control
- T/C (T/C endpoint: median survival time, dose: 8.0 mg/kg/injection, schedule: Q01DX009 (ip), vehicle: saline, evaluated on day 5): 93 % of control
- T/C (T/C endpoint: median survival time, dose: 8.0 mg/kg/injection, schedule: Q01DX009 (ip), vehicle: saline, evaluated on day 30): 100, 109, 118 % of control
- T/C (T/C endpoint: median survival time, dose: 8.0 mg/kg/injection, schedule: Q01DX009 (ip), vehicle: saline, evaluated on day 60): 110 % of control
- survivor count (T/C endpoint: median survival time, dose: 8.0 mg/kg/injection, schedule: Q03HX024 (ip), vehicle: saline): 6 of 10
- T/C (T/C endpoint: median survival time, dose: 16.0 mg/kg/injection, schedule: Q01DX009 (ip), vehicle: saline, evaluated on day 5): 93 % of control
- T/C (T/C endpoint: median survival time, dose: 16.0 mg/kg/injection, schedule: Q01DX009 (ip), vehicle: saline, evaluated on day 30): 100 and 116 % of control (2×)
- T/C (T/C endpoint: median survival time, dose: 16.0 mg/kg/injection, schedule: Q01DX009 (ip), vehicle: saline, evaluated on day 60): 109 % of control
- T/C (T/C endpoint: median survival time, dose: 32.0 mg/kg/injection, schedule: Q01DX009 (ip), vehicle: saline, evaluated on day 5): 90 % of control
- T/C (T/C endpoint: median survival time, dose: 32.0 mg/kg/injection, schedule: Q01DX009 (ip), vehicle: saline, evaluated on day 30): 94, 113, 118 % of control
- T/C (T/C endpoint: median survival time, dose: 32.0 mg/kg/injection, schedule: Q01DX009 (ip), vehicle: saline, evaluated on day 60): 114 % of control
- survivor count (T/C endpoint: median survival time, dose: 32.0 mg/kg/injection, schedule: Q03HX008 (ip), vehicle: saline): 7 of 10
- survivor count (T/C endpoint: median survival time, dose: 64.0 mg/kg/injection, schedule: Q01DX009 (ip), vehicle: saline): 8 of 8

SMILES: Clc1ccc2[nH]c3nc4ccccc4nc3c2c1
- survivor count (T/C endpoint: mean survival time, dose: 400.0 mg/kg/injection, schedule: Q01DX009 (ip), vehicle: saline): 4 of 6

SMILES: CSC(=CC(=O)c1ccccc1)SC
- survivor count [1]: 0 of 6

SMILES: CC1OC(C)(C)OC1C(=O)O (stereo not given)
- survivor count (T/C endpoint: mean survival time, dose: 100.0 mg/kg/injection, schedule: Q01DX009 (ip), vehicle: Klucel (hydroxypropylcellulose) (HPC)): 6 of 6
- survivor count (T/C endpoint: mean survival time, dose: 200.0 mg/kg/injection, schedule: Q01DX009 (ip), vehicle: Klucel (hydroxypropylcellulose) (HPC)): 6 of 6
- survivor count (T/C endpoint: mean survival time, dose: 400.0 mg/kg/injection, schedule: Q01DX009 (ip), vehicle: Klucel (hydroxypropylcellulose) (HPC)): 4 of 6

SMILES: CN1NC=Nc2c1[nH]cnc2=S
- survivor count [2]: 0 of 6

SMILES: Nc1nc(=O)n(C2OC(CO)C(O)C2O)c2nc[nH]c12 (stereo not given)
- survivor count (T/C endpoint: mean survival time, dose: 200.0 mg/kg/injection, schedule: Q01DX005 (ip), vehicle: water): 3 of 3

SMILES: COc1cccc(CCN)c1
- survivor count (T/C endpoint: mean survival time, dose: 150.0 mg/kg/injection, schedule: Q01DX009 (ip), vehicle: saline with Tween-80): 3 of 6

SMILES: C[n+]1cccc(C(=O)NCCc2c[nH]c3ccccc23)c1
- survivor count (T/C endpoint: mean survival time, dose: 150.0 mg/kg/injection, schedule: Q04DX003 (ip), vehicle: acetone): 1 of 6

SMILES: NC(N)=NO
- T/C (T/C endpoint: mean survival time, dose: 100.0 mg/kg/injection, schedule: Q01DX009 (ip), vehicle: water): 125 % of control
- T/C (T/C endpoint: mean survival time, dose: 200.0 mg/kg/injection, schedule: Q01DX009 (ip), vehicle: water): 141 % of control
- T/C (T/C endpoint: mean survival time, dose: 400.0 mg/kg/injection, schedule: Q01DX009 (ip), vehicle: water): 130 and 146 % of control
- survivor count (T/C endpoint: mean survival time, dose: 600.0 mg/kg/injection, schedule: Q01DX009 (ip), vehicle: water): 4 of 10
- survivor count (T/C endpoint: mean survival time, dose: 700.0 mg/kg/injection, schedule: Q01DX009 (ip), vehicle: water): 0 of 10
- survivor count (T/C endpoint: mean survival time, dose: 800.0 mg/kg/injection, schedule: Q01DX009 (ip), vehicle: water): 2 of 10

SMILES: CC1=CC(=O)c2c(O)ccc(O)c2C1=O
- survivor count (T/C endpoint: mean survival time, dose: 20.0 mg/kg/injection, schedule: Q04DX003 (ip), vehicle: other): 3 of 6
- survivor count (T/C endpoint: mean survival time, dose: 40.0 mg/kg/injection, schedule: Q04DX003 (ip), vehicle: other): 1 of 6
- survivor count (T/C endpoint: mean survival time, dose: 80.0 mg/kg/injection, schedule: Q04DX003 (ip), vehicle: other): 0 of 6
- survivor count (T/C endpoint: mean survival time, dose: 100.0 mg/kg/injection, schedule: Q01DX001 (ip), vehicle: saline): 3 of 6
- survivor count (T/C endpoint: mean survival time, dose: 200.0 mg/kg/injection, schedule: Q01DX001 (ip), vehicle: saline): 3 of 6
- survivor count (T/C endpoint: mean survival time, dose: 400.0 mg/kg/injection, schedule: Q01DX001 (ip), vehicle: saline): 0 of 6

SMILES: CCCCCCCCN(C)N=Nc1ccc(C(N)=O)cc1
- T/C (T/C endpoint: mean survival time, dose: 266.0 mg/kg/injection, schedule: Q01DX009 (ip), vehicle: Klucel (hydroxypropylcellulose) (HPC)): 128 % of control

SMILES: COC(=O)/C(C#N)=C(\C)CC(C)C
- survivor count [1]: 2 of 6

SMILES: S=C1OC(c2ccccc2)(c2ccccc2)c2ccsc21
- survivor count (T/C endpoint: mean survival time, dose: 100.0 mg/kg/injection, schedule: Q01DX001 (ip), vehicle: saline with Tween-80): 2 of 3

SMILES: CCC1NC(=O)C(NC(=O)c2ncccc2O)C(C)OC(=O)C(c2ccccc2)NC(=O)C2CC(=O)CCN2C(=O)C(Cc2ccccc2)N(C)C(=O)C2CCCN2C1=O (stereo not given)
- survivor count (T/C endpoint: mean survival time, dose: 400.0 mg/kg/injection, schedule: Q04DX002 (ip), vehicle: saline with Tween-80): 1 of 3

SMILES: CCC/C=C(\C#N)C(=O)OC
- survivor count (T/C endpoint: mean survival time, dose: 150.0 mg/kg/injection, schedule: Q01DX001 (ip), vehicle: saline): 0 of 6
- survivor count [1]: 0 of 6

SMILES: CN(CCC#N)Cc1cc(C(C)(C)C)cc(-c2ccccc2)c1O
- survivor count (T/C endpoint: mean survival time, dose: 400.0 mg/kg/injection, schedule: Q01DX009 (ip), vehicle: saline with Tween-80): 6 of 6

SMILES: CC(=O)NC1(C(=O)O)SCCCS1
- survivor count (T/C endpoint: mean survival time, dose: 200.0 mg/kg/injection, schedule: Q04DX002 (ip), vehicle: saline with Tween-80): 3 of 3

SMILES: CC(=O)c1ccc[n+](CCc2c[nH]c3ccccc23)c1
- survivor count [3]: 4 of 6
- survivor count [4]: 0 of 6
- survivor count [5]: 0 of 6

SMILES: CC(=O)OCCN1CCN(CC/C=C2\c3ccccc3Sc3ccc(Cl)cc32)CC1
- survivor count [3]: 0 of 6
- survivor count (T/C endpoint: mean survival time, dose: 100.0 mg/kg/injection, schedule: Q04DX003 (ip), vehicle: saline): 2 of 6
- survivor count [4]: 0 of 6
- survivor count [5]: 0 of 6

SMILES: CC12CCC(C(=O)C1)C1(C)CCCC(=O)C21 (stereo not given)
- survivor count (T/C endpoint: mean survival time, dose: 150.0 mg/kg/injection, schedule: Q01DX001 (ip), vehicle: other): 3 of 6
- survivor count [2]: 0 of 6

SMILES: CC(=O)NNC(=O)c1ccccc1N=NN(C)C
- T/C (T/C endpoint: mean survival time, dose: 75.0 mg/kg/injection, schedule: Q01DX009 (ip), vehicle: Klucel (hydroxypropylcellulose) (HPC)): 126 % of control
- survivor count (T/C endpoint: mean survival time, dose: 300.0 mg/kg/injection, schedule: Q01DX009 (ip), vehicle: Klucel (hydroxypropylcellulose) (HPC)): 0 of 6 and 1 of 6
